{"source": "patent US12601016B2", "about": "“Genetically encoded fluorescent indicators under optogenetic control and uses thereof” (LUMISTAR BIOTECHNOLOGY, INC., priority 2018, dated 2026)", "test_system": "voltage-gated L-type calcium channels", "assay": "L-type calcium channel inhibitors applied to iPSC-CMs, optically paced Ca^2+ transients imaged using K-GECO1 with ChR2", "type": "cell-based, human", "settings": "100 nM; 470-nm pulses of 40 ms at 0.3 Hz", "excerpt": "(A) A representative time course of spontaneous Ca^2+ oscillations in iPSC-CMs as imaged using K-GECO1. (B) Photoactivation of R-GECO1 and (C) K-GECO1 in iPSC-CMs. Cells with and without spontaneous activities are shown in trace (i) and (ii), respectively. (D) Combined use of K-GECO1 and channelrhodopsin-2 (ChR2) in iPSC-CMs for all-optical control and observation of Ca^2+ transients. Illumination with 470-nm light at a pulse duration of 150 ms for optical control is indicated by arrowheads. (E) Small molecular inhibitors of the voltage-gated L-type calcium channels were applied to iPSC-CMs. iPSC-CMs were plated out at low density and exposed to clinically relevant doses of 100 nM and 1 μM for nifedipine and verapamil, respectively. Traces were obtained with optical stimulation by 470-nm light at a pulse duration of 40 ms at 0.3 Hz. […]\nAn inverted microscope (D1, Zeiss) equipped with a 63× objective lens (NA 1.4, Zeiss) and a multiwavelength LED light source (pE-4000, CoolLED) was used. […] The filter set (Q565lp dichroic mirror, and HQ620/60 emission filter) was used to stimulate ChR2 and to acquire fluorescence imaging of K-GECO1 or R-GECO1. […] Fluorescence signals were recorded using a CMOS camera (ORCA-Flash4.0LT, HAMAMATSU) controlled by a HC Image software.", "note": "At least one structure is not confirmed: it was looked up by name or label, or the drawing left a doubt."}
{"compound": "COC(=O)C1=C(C)NC(C)=C(C(=O)OC)C1c1ccccc1[N+](=O)[O-]", "note": "[nifedipine]", "values": [{"measurement": "effect on triggered intensity change as imaged using K-GECO1", "value": "suppress the triggered intensity change"}]}
